Experimental data from the supplement of paper PMC8728848.
This is one part of the list.

Key:
Experiment in all cases: glycan array binding signal (z-score within array); higher = stronger binding
Settings in all cases: glycan notation: IUPAC condensed, linker removed
[1] = molecular target: Gal(b1-4)GlcNAc(b1-3)Gal(b1-4)Glc
Method in brief: (§1)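 The binding signal is a Z-score computed within each array. Data were drawn from 3228 arrays in the Consortium for Functional Glycomics database, restricted to those with a known protein sequence. Scores were averaged over arrays of the same protein sequence at different concentrations or buffers, and over linkers, and negative values can be taken as non-binding.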

[2] = molecular target: Gal(b1-4)GlcNAc(b1-3)Gal(b1-4)GlcNAc
Method in brief: as §1

[3] = molecular target: Gal(b1-4)GlcNAc(b1-3)Gal(b1-4)GlcNAc(b1-2)Man(a1-3)[Gal(b1-4)GlcNAc(b1-3)Gal(b1-4)GlcNAc(b1-2)Man(a1-6)]Man(b1-4)GlcNAc(b1-4)GlcNAc
Method in brief: as §1

[4] = molecular target: Gal(b1-4)GlcNAc(b1-3)Gal(b1-4)GlcNAc(b1-2)Man(a1-3)[Gal(b1-4)GlcNAc(b1-3)Gal(b1-4)GlcNAc(b1-2)Man(a1-6)]Man(b1-4)GlcNAc(b1-4)[Fuc(a1-6)]GlcNAc
Method in brief: as §1

[5] = molecular target: Gal(b1-4)GlcNAc(b1-3)Gal(b1-4)GlcNAc(b1-2)[Gal(b1-4)GlcNAc(b1-3)Gal(b1-4)GlcNAc(b1-6)]Man(a1-6)[Gal(b1-4)GlcNAc(b1-3)Gal(b1-4)GlcNAc(b1-2)Man(a1-3)]Man(b1-4)GlcNAc(b1-4)GlcNAc
Method in brief: as §1

[6] = molecular target: Gal(b1-4)GlcNAc(b1-3)Gal(b1-4)GlcNAc(b1-2)[Gal(b1-4)GlcNAc(b1-3)Gal(b1-4)GlcNAc(b1-6)]Man(a1-6)[Gal(b1-4)GlcNAc(b1-3)Gal(b1-4)GlcNAc(b1-2)Man(a1-3)]Man(b1-4)GlcNAc(b1-4)[Fuc(a1-6)]GlcNAc
Method in brief: as §1

[7] = molecular target: Gal(b1-4)GlcNAc(b1-3)Gal(b1-4)GlcNAc(b1-3)Gal(b1-4)GlcNAc
Method in brief: as §1

[8] = molecular target: Gal(b1-4)GlcNAc(b1-3)Gal(b1-4)GlcNAc(b1-3)Gal(b1-4)GlcNAc(b1-2)Man(a1-3)[Gal(b1-4)GlcNAc(b1-3)Gal(b1-4)GlcNAc(b1-3)Gal(b1-4)GlcNAc(b1-2)Man(a1-6)]Man(b1-4)GlcNAc(b1-4)GlcNAc
Method in brief: as §1

[9] = molecular target: Gal(b1-4)GlcNAc(b1-3)Gal(b1-4)GlcNAc(b1-3)Gal(b1-4)GlcNAc(b1-2)Man(a1-3)[Gal(b1-4)GlcNAc(b1-3)Gal(b1-4)GlcNAc(b1-3)Gal(b1-4)GlcNAc(b1-2)Man(a1-6)]Man(b1-4)GlcNAc(b1-4)[Fuc(a1-6)]GlcNAc
Method in brief: as §1

[10] = molecular target: Gal(b1-4)GlcNAc(b1-3)Gal(b1-4)GlcNAc(b1-3)Gal(b1-4)GlcNAc(b1-2)[Gal(b1-4)GlcNAc(b1-3)Gal(b1-4)GlcNAc(b1-3)Gal(b1-4)GlcNAc(b1-6)]Man(a1-6)[Gal(b1-4)GlcNAc(b1-3)Gal(b1-4)GlcNAc(b1-3)Gal(b1-4)GlcNAc(b1-2)Man(a1-3)]Man(b1-4)GlcNAc(b1-4)[Fuc(a1-6)]GlcNAc
Method in brief: as §1

[11] = molecular target: Gal(b1-4)GlcNAc(b1-3)Gal(b1-4)GlcNAc(b1-3)Gal(b1-4)GlcNAc(b1-3)Gal(b1-4)GlcNAc(b1-2)Man(a1-3)[Gal(b1-4)GlcNAc(b1-3)Gal(b1-4)GlcNAc(b1-3)Gal(b1-4)GlcNAc(b1-3)Gal(b1-4)GlcNAc(b1-2)Man(a1-6)]Man(b1-4)GlcNAc(b1-4)GlcNAc
Method in brief: as §1

[12] = molecular target: Gal(b1-4)GlcNAc(b1-3)Gal(b1-4)GlcNAc(b1-3)Gal(b1-4)GlcNAc(b1-3)Gal(b1-4)GlcNAc(b1-2)Man(a1-3)[Gal(b1-4)GlcNAc(b1-3)Gal(b1-4)GlcNAc(b1-3)Gal(b1-4)GlcNAc(b1-3)Gal(b1-4)GlcNAc(b1-2)Man(a1-6)]Man(b1-4)GlcNAc(b1-4)[Fuc(a1-6)]GlcNAc
Method in brief: as §1

[13] = molecular target: Gal(b1-4)GlcNAc(b1-3)Gal(b1-4)GlcNAc(b1-3)Gal(b1-4)GlcNAc(b1-3)Gal(b1-4)GlcNAc(b1-2)[Gal(b1-4)GlcNAc(b1-3)Gal(b1-4)GlcNAc(b1-3)Gal(b1-4)GlcNAc(b1-3)Gal(b1-4)GlcNAc(b1-6)]Man(a1-6)[Gal(b1-4)GlcNAc(b1-3)Gal(b1-4)GlcNAc(b1-3)Gal(b1-4)GlcNAc(b1-3)Gal(b1-4)GlcNAc(b1-2)Man(a1-3)]Man(b1-4)GlcNAc(b1-4)[Fuc(a1-6)]GlcNAc
Method in brief: as §1

[14] = molecular target: Gal(b1-4)GlcNAc(b1-3)Gal(b1-4)GlcNAc(b1-3)Gal(b1-4)GlcNAc(b1-3)Gal(b1-4)GlcNAc(b1-3)Gal(b1-4)GlcNAc(b1-2)Man(a1-3)[Gal(b1-4)GlcNAc(b1-3)Gal(b1-4)GlcNAc(b1-3)Gal(b1-4)GlcNAc(b1-3)Gal(b1-4)GlcNAc(b1-3)Gal(b1-4)GlcNAc(b1-2)Man(a1-6)]Man(b1-4)GlcNAc(b1-4)GlcNAc
Method in brief: as §1

[15] = molecular target: Gal(b1-4)GlcNAc(b1-3)Gal(b1-4)GlcNAc(b1-3)Gal(b1-4)GlcNAc(b1-3)Gal(b1-4)GlcNAc(b1-3)Gal(b1-4)GlcNAc(b1-2)Man(a1-3)[Gal(b1-4)GlcNAc(b1-3)Gal(b1-4)GlcNAc(b1-3)Gal(b1-4)GlcNAc(b1-3)Gal(b1-4)GlcNAc(b1-3)Gal(b1-4)GlcNAc(b1-2)Man(a1-6)]Man(b1-4)GlcNAc(b1-4)[Fuc(a1-6)]GlcNAc
Method in brief: as §1

[16] = molecular target: Gal(b1-4)GlcNAc(b1-3)Gal(b1-4)GlcNAc(b1-3)Gal(b1-4)GlcNAc(b1-3)Gal(b1-4)GlcNAc(b1-3)Gal(b1-4)GlcNAc(b1-2)[Gal(b1-4)GlcNAc(b1-3)Gal(b1-4)GlcNAc(b1-3)Gal(b1-4)GlcNAc(b1-3)Gal(b1-4)GlcNAc(b1-3)Gal(b1-4)GlcNAc(b1-6)]Man(a1-6)[Gal(b1-4)GlcNAc(b1-3)Gal(b1-4)GlcNAc(b1-3)Gal(b1-4)GlcNAc(b1-3)Gal(b1-4)GlcNAc(b1-3)Gal(b1-4)GlcNAc(b1-2)Man(a1-3)]Man(b1-4)GlcNAc(b1-4)[Fuc(a1-6)]GlcNAc
Method in brief: as §1

[17] = molecular target: Gal(b1-4)GlcNAc(b1-3)Gal(b1-4)GlcNAc(b1-3)Gal(b1-4)GlcNAc(b1-3)Gal(b1-4)GlcNAc(b1-3)Gal(b1-4)GlcNAc(b1-3)Gal(b1-4)GlcNAc(b1-2)Man(a1-3)[Gal(b1-4)GlcNAc(b1-3)Gal(b1-4)GlcNAc(b1-3)Gal(b1-4)GlcNAc(b1-3)Gal(b1-4)GlcNAc(b1-3)Gal(b1-4)GlcNAc(b1-3)Gal(b1-4)GlcNAc(b1-2)Man(a1-6)]Man(b1-4)GlcNAc(b1-4)GlcNAc
Method in brief: as §1

[18] = molecular target: Gal(b1-4)GlcNAc(b1-3)Gal(b1-4)GlcNAc(b1-3)GalNAc
Method in brief: as §1

[19] = molecular target: Gal(b1-4)GlcNAc(b1-3)Gal(b1-4)GlcNAc(b1-3)[Gal(b1-4)GlcNAc(b1-3)Gal(b1-4)GlcNAc(b1-6)]GalNAc
Method in brief: as §1

B1: PX9961KLbvu-535-38-535 (Bacteroides vulgatus) (protein)
chain: DKAYTDAESYTKGLHKIYSVWALSGQDGSSSSDISGLDAGNTALLRCWWTLQEQPTDEMKNAWNDAWCTEVNYMTWTTNKVEPIEGVYQRCMYIVALVNEFLKNIPNAPESIDKESYIAQARFNRAFAYYVLMDMFALPPFITEKNYSIEPAPLSREDLFNWIEAELNEIKPNLPSPRSEYGVADQAVASALLARMYLNAEIYTGKARYTECINACNEVIKAGYQLADNYADLFKADNGENPDTKKEIIYPIIFDGDKTQSWGMAAIIIGARGAEDKDVLLAHSGVDQGWAGFRATSNLVHLFDFQNDEEPKASEIQDKRGIFYDKGRSIDITSSVSGTFETEGWSVFKFSNLNSNGQPGKNTLWVDTDFPMFRLGDIYLMYAEAVARGGEGSKASAVEYINALRKRAYGDDKHNISENWLEENNFRNLLDERGRELYWEGIRRTDLVRFDLLTSGSYTWDFKGGINTGVGVNKRYNVYPIPVTDLTVNGNLQQNEGY
Q: What does the source list for B1?
A: glycan array binding signal (z-score) [1]: -0.034; glycan array binding signal (z-score) [2]: -0.347; glycan array binding signal (z-score) [3]: 1.18; glycan array binding signal (z-score) [4]: -0.389; glycan array binding signal (z-score) [5]: 0.487; glycan array binding signal (z-score) [6]: 0.642; glycan array binding signal (z-score) [7]: -1.26; glycan array binding signal (z-score) [8]: 0.605; glycan array binding signal (z-score) [9]: 0.109; glycan array binding signal (z-score) [10]: 1.11; glycan array binding signal (z-score) [11]: 1.57; glycan array binding signal (z-score) [12]: 0.419; glycan array binding signal (z-score) [13]: 0.197; glycan array binding signal (z-score) [14]: -0.077; glycan array binding signal (z-score) [15]: -0.238; glycan array binding signal (z-score) [16]: 0.274; glycan array binding signal (z-score) [17]: -0.374; glycan array binding signal (z-score) [18]: -0.247; glycan array binding signal (z-score) [19]: 0.396
